PubChem BioAssay AID1224828 | NIAID – 2016

Screen: 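Find genes required for NF-kappaB p65 moving into the nucleus after LPS in mouse macrophages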 (primary screen)
Cells: mouse RAW264.7 G9 macrophage reporter cells (GFP-p65, Tnf promoter-mCherry)
Reagents: siRNA pool against mouse genes, 100 nM
Time to read-out: 2 days siRNA transfection, then 40 min LPS before fixation
Conditions: LPS (Salmonella minnesota R595) at 10 ng/ml
Measured: 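Microscopy ratio of nuclear to perinuclear-ring GFP-p65 signal, scaled to the plate median; gene score is the average of two replicate robust z-scores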
Scale: p65 translocation robust z-score: higher = more nuclear NF-kappaB p65 after LPS than the plate median; nuclear/cytoplasmic p65 ratio: higher = more nuclear NF-kappaB p65
Call rule: 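Active if robust z is above 3.3 (negative regulators) or below -1.56, the Tlr4 control median (positive regulators); activity score 50 or more; control wells not called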
Meaning of the calls: active = hit (p65 shift raised or lowered); inactive = no clear change
In all, the deposit lists about 17,000 reagents; below is a part drawn at random. In the full data, 762 (4.5%) are marked active. 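Active calls include both raised and lowered p65 entry, mostly lowered; wells with fewer than 50 cells lack a z-score.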 Raw values vary from plate to plate and are shown uncorrected.

Target gene	PubChem SID	p65 translocation robust z-score	nuclear/cytoplasmic p65 ratio, rep 1	nuclear/cytoplasmic p65 ratio, rep 2	low cell count flag	activity call
Pdxk (pyridoxal (pyridoxine, vitamin B6) kinase)	SID315477972	1.3	1.96	1.49	enough cells to score	inactive
Shb (src homology 2 domain-containing transforming protein B)	SID315478765	-0.29	1.48	1.54	enough cells to score	inactive
Litaf (LPS-induced TN factor)	SID315471654	0.7	1.78	1.69	enough cells to score	inactive
Or10q1 (olfactory receptor family 10 subfamily Q member 1)	SID315480601	-1.59	1.42	1.17	enough cells to score	active
N4bp3 (NEDD4 binding protein 3)	SID315477758	-1.23	1.28	1.34	enough cells to score	inactive
Strip1 (striatin interacting protein 1)	SID315478734		1.37	1.27	fewer than 50 cells per well; well left out of scoring	inactive
Trhde (TRH-degrading enzyme)	SID315479352	-0.43	1.36	1.62	enough cells to score	inactive
Gnb1l	SID315466564	0.16	1.7	1.54	enough cells to score	inactive
Defb7 (defensin beta 7)	SID315479853	-0.09	1.6	1.49	enough cells to score	inactive
Acot9 (acyl-CoA thioesterase 9)	SID315471478	0.54	1.66	1.8	enough cells to score	inactive
Gpsm1 (G-protein signalling modulator 1 (AGS3-like, C. elegans))	SID315473249	-0.3	1.09	1.52	enough cells to score	inactive
Coq3 (coenzyme Q3 methyltransferase)	SID315478756	0.94	1.81	1.83	enough cells to score	inactive
Clvs2 (clavesin 2)	SID315477958	-0.17	1.36	1.5	enough cells to score	inactive
Lamc2 (laminin, gamma 2)	SID315467725	0.11	1.54	1.35	enough cells to score	inactive
Tln1 (talin 1)	SID315469742		1.38	1.18	fewer than 50 cells per well; well left out of scoring	inactive
Atf2 (activating transcription factor 2)	SID315465534	-0.05	1.56	1.66	enough cells to score	inactive
Or5h18 (olfactory receptor family 5 subfamily H member 18)	SID315480009	0.26	1.65	1.54	enough cells to score	inactive
Rnf135 (ring finger protein 135)	SID315474393		1.8	1.8	fewer than 50 cells per well; well left out of scoring	inactive
Tubgcp5 (tubulin, gamma complex component 5)	SID315479075	0.12	1.37	1.27	enough cells to score	inactive
Cenpq (centromere protein Q)	SID315475872		1.16	1.23	fewer than 50 cells per well; well left out of scoring	inactive
Arpc5 (actin related protein 2/3 complex, subunit 5)	SID315473218	-0.61	1.36	1.58	enough cells to score	inactive
Pcca (propionyl-Coenzyme A carboxylase, alpha polypeptide)	SID315476935	-0.25	1.52	1.28	enough cells to score	inactive
B230317F23Rik (RIKEN cDNA B230317F23 gene)	SID315481299	-0.59	1.49	1.45	enough cells to score	inactive
Gp2 (glycoprotein 2 zymogen granule membrane)	SID315472857	0.57	1.72	1.57	enough cells to score	inactive

Part of the list above, reformatted.
{"Target gene":"Or5h18 (olfactory receptor family 5 subfamily H member 18)","PubChem SID":"SID315480009","p65 translocation robust z-score":0.26,"nuclear/cytoplasmic p65 ratio, rep 1":1.65,"nuclear/cytoplasmic p65 ratio, rep 2":1.54,"low cell count flag":"enough cells to score","activity call":"inactive"}
{"Target gene":"Rnf135 (ring finger protein 135)","PubChem SID":"SID315474393","nuclear/cytoplasmic p65 ratio, rep 1":1.8,"nuclear/cytoplasmic p65 ratio, rep 2":1.8,"low cell count flag":"fewer than 50 cells per well; well left out of scoring","activity call":"inactive"}
{"Target gene":"Tubgcp5 (tubulin, gamma complex component 5)","PubChem SID":"SID315479075","p65 translocation robust z-score":0.12,"nuclear/cytoplasmic p65 ratio, rep 1":1.37,"nuclear/cytoplasmic p65 ratio, rep 2":1.27,"low cell count flag":"enough cells to score","activity call":"inactive"}
{"Target gene":"Cenpq (centromere protein Q)","PubChem SID":"SID315475872","nuclear/cytoplasmic p65 ratio, rep 1":1.16,"nuclear/cytoplasmic p65 ratio, rep 2":1.23,"low cell count flag":"fewer than 50 cells per well; well left out of scoring","activity call":"inactive"}
{"Target gene":"Arpc5 (actin related protein 2/3 complex, subunit 5)","PubChem SID":"SID315473218","p65 translocation robust z-score":-0.61,"nuclear/cytoplasmic p65 ratio, rep 1":1.36,"nuclear/cytoplasmic p65 ratio, rep 2":1.58,"low cell count flag":"enough cells to score","activity call":"inactive"}
{"Target gene":"Pcca (propionyl-Coenzyme A carboxylase, alpha polypeptide)","PubChem SID":"SID315476935","p65 translocation robust z-score":-0.25,"nuclear/cytoplasmic p65 ratio, rep 1":1.52,"nuclear/cytoplasmic p65 ratio, rep 2":1.28,"low cell count flag":"enough cells to score","activity call":"inactive"}
{"Target gene":"B230317F23Rik (RIKEN cDNA B230317F23 gene)","PubChem SID":"SID315481299","p65 translocation robust z-score":-0.59,"nuclear/cytoplasmic p65 ratio, rep 1":1.49,"nuclear/cytoplasmic p65 ratio, rep 2":1.45,"low cell count flag":"enough cells to score","activity call":"inactive"}
{"Target gene":"Gp2 (glycoprotein 2 zymogen granule membrane)","PubChem SID":"SID315472857","p65 translocation robust z-score":0.57,"nuclear/cytoplasmic p65 ratio, rep 1":1.72,"nuclear/cytoplasmic p65 ratio, rep 2":1.57,"low cell count flag":"enough cells to score","activity call":"inactive"}

The results go on.
Target gene	PubChem SID	p65 translocation robust z-score	nuclear/cytoplasmic p65 ratio, rep 1	nuclear/cytoplasmic p65 ratio, rep 2	low cell count flag	activity call
Oxsr1 (oxidative-stress responsive 1)	SID315476735	0.87	1.8	1.5	enough cells to score	inactive
Twf2 (twinfilin actin binding protein 2)	SID315470280		1.74	1.16	fewer than 50 cells per well; well left out of scoring	inactive
Evc (EvC ciliary complex subunit 1)	SID315471985	-1.08	1.33	1.22	enough cells to score	inactive
Scaper (S phase cyclin A-associated protein in the ER)	SID315479791	-0.02	1.44	1.22	enough cells to score	inactive
Or4g16 (olfactory receptor family 4 subfamily G member 16)	SID315480073	0.54	1.69	1.5	enough cells to score	inactive
Dph6 (diphthamine biosynthesis 6)	SID315472553		1.37	1.55	fewer than 50 cells per well; well left out of scoring	inactive
Ammecr1 (AMMECR nuclear protein 1)	SID315471360	-0.41	1.54	1.57	enough cells to score	inactive
Kl (klotho)	SID315467637	1.02	1.73	1.54	enough cells to score	inactive
Mrgprx2 (MAS-related GPR, member X2)	SID315479728	2.46	1.74	2.05	enough cells to score	inactive
Tspan6 (tetraspanin 6)	SID315471575	1.09	1.61	1.22	enough cells to score	inactive
Rhoh (ras homolog family member H)	SID315475032	-0.62	1.19	1.42	enough cells to score	inactive
Rps16 (ribosomal protein S16)	SID315469038		1.62	1.74	fewer than 50 cells per well; well left out of scoring	inactive
Sox21 (SRY (sex determining region Y)-box 21)	SID315478251	0.04	1.47	1.2	enough cells to score	inactive
Ttpal (tocopherol (alpha) transfer protein-like)	SID315475240	1.06	1.46	1.64	enough cells to score	inactive
Naa10 (N(alpha)-acetyltransferase 10, NatA catalytic subunit)	SID315471436	-1.14	1.31	1.48	enough cells to score	inactive
Pip4k2a (phosphatidylinositol-5-phosphate 4-kinase, type II, alpha)	SID315468520	-0.24	1.66	1.34	enough cells to score	inactive
Gtpbp6 (GTP binding protein 6 (putative))	SID315476665	-0.88	1.28	1.18	enough cells to score	inactive
Sema3b	SID315469172	1.17	1.57	1.38	enough cells to score	inactive
Rtn4r (reticulon 4 receptor)	SID315472138	-0.72	1.42	1.41	enough cells to score	inactive
Efl1 (elongation factor like GTPase 1)	SID315476289	0.31	1.44	1.46	enough cells to score	inactive
Or7h8 (olfactory receptor family 7 subfamily H member 8)	SID315480531	-0.04	1.44	1.24	enough cells to score	inactive
Aldh5a1 (aldhehyde dehydrogenase family 5, subfamily A1)	SID315477871	1.97	1.81	1.55	enough cells to score	inactive
Fh1 (fumarate hydratase 1)	SID315466683	-0.12	1.36	1.41	enough cells to score	inactive
Hint3 (histidine triad nucleotide binding protein 3)	SID315472670	0.51	1.56	1.56	enough cells to score	inactive
Atxn2l (ataxin 2-like)	SID315479114		1.34	1.69	fewer than 50 cells per well; well left out of scoring	inactive
Gng8 (guanine nucleotide binding protein (G protein), gamma 8)	SID315466967	1.69	1.91	1.78	enough cells to score	inactive
Fbxo36 (F-box protein 36)	SID315472249	-0.21	1.61	1.39	enough cells to score	inactive
Efna3 (ephrin A3)	SID315466449	0.8	1.63	1.42	enough cells to score	inactive
Gm5094 (predicted gene 5094)	SID315481499	2.55	1.42	1.88	enough cells to score	inactive
Tpsb2 (tryptase beta 2)	SID315467872	-0.22	1.73	1.48	enough cells to score	inactive
Fbxw15 (F-box and WD-40 domain protein 15)	SID315481822	-1.6	1.52	1.27	enough cells to score	active
Ajuba (ajuba LIM protein)	SID315467552	0.42	1.62	1.48	enough cells to score	inactive
Sgcb (sarcoglycan, beta (dystrophin-associated glycoprotein))	SID315470297	0.85	1.59	1.76	enough cells to score	inactive
Morc2b (microrchidia 2B)	SID315479482		1.32	1	fewer than 50 cells per well; well left out of scoring	inactive
Dcdc5 (doublecortin domain containing 5)	SID315481529		1.18	1.26	fewer than 50 cells per well; well left out of scoring	inactive
